Results are given in words; binding and its absence hold for the method and conditions named. Some results given as binding are weak or reduced against the parent protein; the word gives no strength. For part of these data: Sequences can lack the tags named with a protein.
T1: C39S adiponectin (murine), Q60994
T1 chain: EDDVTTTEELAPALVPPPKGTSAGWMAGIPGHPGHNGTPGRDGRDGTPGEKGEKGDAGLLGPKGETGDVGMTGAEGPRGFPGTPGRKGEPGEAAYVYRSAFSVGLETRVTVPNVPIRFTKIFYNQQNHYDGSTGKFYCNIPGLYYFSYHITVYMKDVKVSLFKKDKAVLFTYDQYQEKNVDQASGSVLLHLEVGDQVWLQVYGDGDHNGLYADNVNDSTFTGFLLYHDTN


What was measured:
[1] = target: recombinant murine adiponectin with a V5-6xHis C-terminal tag (murine) (UniProt Q60994); experiment: non-reducing denaturing SDS-PAGE with Western blot
[2] = target: recombinant murine adiponectin with a V5-6xHis C-terminal tag (murine) (UniProt Q60994); experiment: SEC
[3] = target: T1, C39S adiponectin (murine), Q60994; experiment: non-reducing denaturing SDS-PAGE with Western blot; conditions: remark: other sources report otherwise

Binder	binding [1]	binding [2]	binding [3]
recombinant murine adiponectin with a V5-6xHis C-terminal tag (protein, UniProt Q60994 18-247) EDDVTTTEELAPALVPPPKGTCAGWMAGIPGHPGHNGTPGRDGRDGTPGEKGEKGDAGLLGPKGETGDVGMTGAEGPRGFPGTPGRKGEPGEAAYVYRSAFSVGLETRVTVPNVPIRFTKIFYNQQNHYDGSTGKFYCNIPGLYYFSYHITVYMKDVKVSLFKKDKAVLFTYDQYQEKNVDQASGSVLLHLEVGDQVWLQVYGDGDHNGLYADNVNDSTFTGFLLYHDTN	binds	binds	–
C39S adiponectin, Q60994 18-247 (protein) EDDVTTTEELAPALVPPPKGTSAGWMAGIPGHPGHNGTPGRDGRDGTPGEKGEKGDAGLLGPKGETGDVGMTGAEGPRGFPGTPGRKGEPGEAAYVYRSAFSVGLETRVTVPNVPIRFTKIFYNQQNHYDGSTGKFYCNIPGLYYFSYHITVYMKDVKVSLFKKDKAVLFTYDQYQEKNVDQASGSVLLHLEVGDQVWLQVYGDGDHNGLYADNVNDSTFTGFLLYHDTN	–	–	no binding

Source: publication doi:10.1101/776690
